Measured values as given in patent US20120070451A1, “METHODS AND COMPOSITIONS FOR MODULATING CARDIAC CONTRACTILITY” (Consiglio Nazionale Delle Ricerche, priority 2009, published 2012).
No constants are given. Whether binding was seen depends on the method and setting. Binding seen in cells or lysates may run through a third protein. Some results given as binding are weak or reduced against the parent protein; the word gives no strength.

Protein sequences, listed by entry. Tags and fused reporters are not part of them. Lines headed by an entry give the natural chain unless they say otherwise; changes in a name come on top. Residues count along the entry.
UniProt Q8CC27: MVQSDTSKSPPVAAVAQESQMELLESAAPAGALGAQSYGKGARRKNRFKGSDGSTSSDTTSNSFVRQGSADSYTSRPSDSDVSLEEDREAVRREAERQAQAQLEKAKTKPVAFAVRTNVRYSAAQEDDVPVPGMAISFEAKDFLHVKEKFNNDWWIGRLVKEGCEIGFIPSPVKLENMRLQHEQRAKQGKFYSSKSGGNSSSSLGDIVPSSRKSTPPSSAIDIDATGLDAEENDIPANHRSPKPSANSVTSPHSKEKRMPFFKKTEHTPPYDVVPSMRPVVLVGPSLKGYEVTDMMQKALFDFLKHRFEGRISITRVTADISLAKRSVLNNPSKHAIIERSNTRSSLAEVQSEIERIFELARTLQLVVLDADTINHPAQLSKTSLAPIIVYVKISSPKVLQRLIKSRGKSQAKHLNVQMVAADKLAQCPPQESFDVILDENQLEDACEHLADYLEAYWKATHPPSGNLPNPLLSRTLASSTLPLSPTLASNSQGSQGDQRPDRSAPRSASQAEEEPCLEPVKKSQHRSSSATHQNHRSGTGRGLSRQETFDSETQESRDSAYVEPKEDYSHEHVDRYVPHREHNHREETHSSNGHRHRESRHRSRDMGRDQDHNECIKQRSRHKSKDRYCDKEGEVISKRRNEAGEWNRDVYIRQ
UniProt Q9WUA6, residues 2-479: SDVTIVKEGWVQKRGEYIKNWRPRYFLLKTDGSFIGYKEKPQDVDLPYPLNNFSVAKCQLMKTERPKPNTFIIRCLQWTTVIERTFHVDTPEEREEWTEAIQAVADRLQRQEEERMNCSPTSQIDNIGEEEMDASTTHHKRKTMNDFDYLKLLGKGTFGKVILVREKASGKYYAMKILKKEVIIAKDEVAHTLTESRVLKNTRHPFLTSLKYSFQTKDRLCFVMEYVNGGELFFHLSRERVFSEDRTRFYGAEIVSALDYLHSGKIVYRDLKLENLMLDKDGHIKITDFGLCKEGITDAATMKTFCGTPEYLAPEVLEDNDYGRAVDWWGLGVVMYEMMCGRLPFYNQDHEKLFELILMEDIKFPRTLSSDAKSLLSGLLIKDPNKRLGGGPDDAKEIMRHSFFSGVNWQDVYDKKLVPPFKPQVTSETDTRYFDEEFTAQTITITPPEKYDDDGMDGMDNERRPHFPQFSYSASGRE
UniProt Q60823: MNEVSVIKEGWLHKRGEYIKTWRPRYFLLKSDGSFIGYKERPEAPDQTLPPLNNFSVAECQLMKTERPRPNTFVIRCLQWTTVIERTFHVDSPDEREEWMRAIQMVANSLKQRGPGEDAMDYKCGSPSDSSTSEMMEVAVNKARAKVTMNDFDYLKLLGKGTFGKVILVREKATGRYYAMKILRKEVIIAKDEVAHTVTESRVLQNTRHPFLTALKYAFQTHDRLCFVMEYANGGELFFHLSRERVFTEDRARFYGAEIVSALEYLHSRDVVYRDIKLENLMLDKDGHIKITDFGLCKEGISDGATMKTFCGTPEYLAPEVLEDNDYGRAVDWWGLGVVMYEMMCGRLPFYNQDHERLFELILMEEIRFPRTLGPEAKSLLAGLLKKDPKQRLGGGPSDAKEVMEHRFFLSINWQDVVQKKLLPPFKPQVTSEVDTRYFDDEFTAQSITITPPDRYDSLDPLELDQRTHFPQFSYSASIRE

Legend:
[1] = target: Cavβ2 (Ca2+ beta2 channel accessory subunit), endogenous, mouse heart (mouse) (UniProt Q8CC27); experiment: co-immunoprecipitation: Akt isoforms immunoprecipitated from WT cardiac extracts of mice treated or not with insulin, assayed for Cavβ2
[2] = target: Cavβ2 (Ca2+ beta2 channel accessory subunit), endogenous, mouse heart (mouse) (UniProt Q8CC27); experiment: co-immunoprecipitation: Akt isoforms immunoprecipitated from WT mouse cardiac extracts, assayed for Cavβ2
[3] = target: Cavβ2 (Ca2+ beta2 channel accessory subunit), endogenous, mouse heart (mouse) (UniProt Q8CC27); experiment: co-immunoprecipitation from mouse cardiac extracts

Measured: binding

Akt3, endogenous, mouse heart (from UniProt Q9WUA6 2-479) (enzyme)
binds: all assays above

Akt2, endogenous, mouse heart (from UniProt Q60823 1-481) (enzyme)
binds: all assays above
